Source: PubChem BioAssay AID1259405 (NCATS, 2018)

- Screen: 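Knock-downs that lift recombinant protein yield in hamster ovary cells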 (primary screen)
- Cells: Chinese hamster CHO-K1 ovary cells with stable secreted eGFP expression
- Knock-down reagent: single siRNA against mouse genes, 0.8 pmol siRNA per well (2 µl of 400 nM stock)
- Time to read-out: 3 days
- Measurement: 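Per-well intracellular GFP measured by laser scanning cytometry, plus viability from ATP luminescence, each relative to plate median of non-targeting control wells, in %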
- Reading the numbers: GFP, % of control: higher = more GFP per well, higher productivity; viability (ATP), % of control: higher = more viable cells (more ATP)
- Call rule: 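a knock-down is called active if GFP reaches 120% or more of non-targeting control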
The whole screen tested about 50,000 reagents; shown is an unselected part. Of all reagents, about 4,000 (8%) are marked active. 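Mouse siRNA library applied to hamster cells; one well for each siRNA.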 Entries without a mark were called inactive. Reagents against one gene are numbered here.

For Cd99 (CD99 antigen) #1, what was measured?
GFP, % of control: 78.4; viability (ATP), % of control: 68.2

Which result is listed for Cd99 (CD99 antigen) #2?
GFP, % of control: 76.4; viability (ATP), % of control: 49.3

What is on record for Cd99 (CD99 antigen) #3?
GFP, % of control: 67.3; viability (ATP), % of control: 88.8

What is on record for Ergic2 (ERGIC and golgi 2) #1?
GFP, % of control: 56.3; viability (ATP), % of control: 92.1

For Ergic2 (ERGIC and golgi 2) #2, what does the deposit list?
GFP, % of control: 57.4; viability (ATP), % of control: 72.5

Which result is listed for Ergic2 (ERGIC and golgi 2) #3?
GFP, % of control: 90.9; viability (ATP), % of control: 70.8

With Alg3 (ALG3 alpha-1,3- mannosyltransferase) #1, how do the results read?
GFP, % of control: 94.1; viability (ATP), % of control: 71

With Alg3 (ALG3 alpha-1,3- mannosyltransferase) #2, what was measured?
GFP, % of control: 79.5; viability (ATP), % of control: 81.3

With Alg3 (ALG3 alpha-1,3- mannosyltransferase) #3, what was measured?
GFP, % of control: 101; viability (ATP), % of control: 105

Reformatted: entries from further up
target gene,siRNA no.,"GFP, % of control","viability (ATP), % of control"
Cd99 (CD99 antigen),1,78.4,68.2
Cd99 (CD99 antigen),2,76.4,49.3

More reagents:
For Psmd9 (proteasome (prosome, macropain) 26S subunit, non-ATPase, 9) #1, what was measured?
GFP, % of control: 91.8; viability (ATP), % of control: 78.7

How did the screen score Psmd9 (proteasome (prosome, macropain) 26S subunit, non-ATPase, 9) #2?
GFP, % of control: 143 (active); viability (ATP), % of control: 94.9

With Odc1 (ornithine decarboxylase, structural 1) #1, what was measured?
GFP, % of control: 83.1; viability (ATP), % of control: 48.6

What did the screen give for Odc1 (ornithine decarboxylase, structural 1) #2?
GFP, % of control: 95.2; viability (ATP), % of control: 64.4

Which result is listed for Zfp60 (zinc finger protein 60) #1?
GFP, % of control: 73.6; viability (ATP), % of control: 74.4

With Zfp60 (zinc finger protein 60) #2, what does the deposit list?
GFP, % of control: 50; viability (ATP), % of control: 68.2

Which result is listed for Zfp60 (zinc finger protein 60) #3?
GFP, % of control: 82.5; viability (ATP), % of control: 91.6

How did the screen score Zfp60 (zinc finger protein 60) #4?
GFP, % of control: 96; viability (ATP), % of control: 99

For Zfp60 (zinc finger protein 60) #5, what was measured?
GFP, % of control: 74.8; viability (ATP), % of control: 80.5

With Zfp60 (zinc finger protein 60) #6, what does the deposit list?
GFP, % of control: 72.3; viability (ATP), % of control: 90.6
